{
  "source": "PubChem BioAssay AID686979",
  "about": "(National Center for Advancing Translational Sciences (NCATS), 2013)",
  "note": "In all, about 420,000 compounds went through this assay and about 50,000 (12%) were called active. Only results without a clear call are listed here; the source files them as inconclusive. Calls come from the whole dose curve; as a rule, active = well fitted inhibition curve with a large enough effect; inconclusive = small, poorly fitted or top-dose-only effect; inactive = flat fitted curve, though single readings scatter. Some tests of the compounds listed are not included; inactive here does not mean inactive elsewhere. Potency is the fitted concentration of half-maximal effect.",
  "data": [
    {"test": "qHTS for Inhibitors of human tyrosyl-DNA phosphodiesterase 1 (TDP1): qHTS in cells in presence of CPT; note: nearly all actives have a fitted effect of over 55% in size", "settings": "chicken DT40 Tdp1-/-;hTDP1 cells + 20 nM CPT, ATP luminescence, 48 h", "values": [
      {"smiles": "O=C(NCC1(N2CCCCC2)CCCCC1)c1cccc(Cl)c1", "Potency": "inconclusive: 6.51 µM"},
      {"smiles": "COc1ccc(Br)c(C(=O)NCC2(N3CCCCC3)CCCCC2)c1", "Potency": "inconclusive: 29.1 µM"},
      {"smiles": "O=C(OCCN1CCCC1)C(O)(c1ccccc1)c1ccccc1", "Potency": "inconclusive: 18.4 µM"}
    ]}
  ]
}
